Source: patent publication US20230227838A1, “ENHANCED CELL SURVIVAL AGAINST BIOTIC AND ABIOTIC STRESSES THROUGH SALICYLICK ACID-INDUCED NPR1 CONDENSATES” (priority 2020, published 2023)

B1: AT5G14250 (protein, UniProt Q8W575 1-429, looked up)
COP9 signalosome complex …: MIGAVNSVEAVITSIQGLSGSPEDLSALHDLLRGAQDSLRAEPGVNFSTLDQLDASKHSLGYLYFLEVLTCGPVSKEKAAYEIPIIARFINSCDAGQIRLASYKFVSLCKILKDHVIALGDPLRGVGPLLNAVQKLQVSSKRLTALHPDVLQLCLQAKSYKSGFSILSDDIVEIDQPRDFFLYSYYGGMICIGLKRFQKALELLYNVVTAPMHQVNAIALEAYKKYILVSLIHNGQFTNTLPKCASTAAQRSFKNYTGPYIELGNCYNDGKIGELEALVVARNAEFEEDKNLGLVKQAVSSLYKRNILRLTQKYLTLSLQDIANMVQLGNAKEAEMHVLQMIQDGQIHALINQKDGMVRFLEDPEQYKSSEMIEIMDSVIQRTIGLSKNLLAMDESLSCDPLYLGKVGRERQRYDFGDDFDTVPQKFSM
B2: AT2G14560 (protein, UniProt Q9ZQR8 1-207, looked up)
Protein LURP1: MQQPCVIVGSKYCSPNPVGLAIVRKVMKITDGNFVITSADGKLLFKVKDPLFSLHGKRILLDCSGAKVLTLRGKMMTMHDRWQVFRGGSTEEGALLYTVKRSSMIQLAPKLEVFLANNVEEKICDFKVKGAWLDDSCVVYAGDSDTIIAHMCGKQTMRGFFFGKDHFSVTVDKNVDYAFIASLIVILVEIEKAGFITKMTTQMIIGF
B3: AT4G21100 (protein)
chain: MSVWNYAVTAQKPTCVTHSCVGNFTSPQELNLIVAKSTRIEIHLLSPQGLQTILDVPLYGRIATMELFRPHGEAQDFLFVATERYKFCVLQWDYESSELITRAMGDVSDRIGRPTDNGQIGIIDPDCRVIGLHLYDGLFKVIPFDNKGQLKEAFNIRLEELQVLDIKFLYGCTKPTIAVLYQDNKDARHVKTYEVSLKDKNFVEGPWSQNNLDNGADLLIPVPSPLCGVLIIGEETIVYCSANAFKAIPIRPSITKAYGRVDLDGSRYLLGDHAGLIHLLVITHEKEKVTGLKIELLGETSIASSISYLDNAVVFVGSSYGDSQLIKLNLQPDAKGSYVEILEKYVNLGPIVDFCVVDLERQGQGQVVTCSGAYKDGSLRIVRNGIGINEQASVELQGIKGMWSLKSSIDEAFDTFLVVSFISETRILAMNIEDELEETEIEGFLSEVQTLFCHDAVYNQLVQVTSNSVRLVSSTTRELRNKWDAPAGFSVNVATANASQVLLATGGGHLVYLEIGDGTLTEVKHVLLEYEVSCLDINPIGDNPNYSQLAAVGMWTDISVRIFVLPDLTLITKEELGGEIIPRSVLLCAFEGISYLLCALGDGHLLNFQLDTSCGKLRDRKKVSLGTRPITLRTFSSKSATHVFAASDRPAVIYSNNKKLLYSNVNLKEVSHMCPFNSAAFPDSLAIAREGELTIGTIDDIQKLHIRTIPIGEHARRICHQEQTRTFAISCLRNEPSAEESESHFVRLLDAQSFEFLSSYPLDAFECGCSILSCSFTDDKNVYYCVGTAYVLPEENEPTKGRILVFIVEEGRLQLITEKETKGAVYSLNAFNGKLLASINQKIQLYKWMLRDDGTRELQSECGHHGHILALYVQTRGDFIAVGDLMKSISLLIYKHEEGAIEERARDYNANWMTAVEILNDDIYLGTDNCFNIFTVKKNNEGATDEERARMEVVGEYHIGEFVNRFRHGSLVMKLPDSDIGQIPTVIFGTVSGMIGVIASLPQEQYAFLEKLQTSLRKVIKGVGGLSHEQWRSFNNEKRTAEAKGYLDGDLIESFLDLSRGKMEEISKGMDVQVEELCKRVEELTRLH
B4: AT5G45110 (protein)
chain: MATLTEPSSSLSFTSSHFSYGSIGSNHFSSSSASNPEVVSLTKLSSNLEQLLSNSDCDYSDAEIIVDGVPVGVHRCILAARSKFFQDLFKKEKKISKTEKPKYQLREMLPYGAVAHEAFLYFLSYIYTGRLKPFPLEVSTCVDPVCSHDCCRPAIDFVVQLMYASSVLQVPELVSSFQRRLCNFVEKTLVENVLPILMVAFNCKLTQLLDQCIERVARSDLYRFCIEKEVPPEVAEKIKQLRLISPQDEETSPKISEKLLERIGKILKALDSDDVELVKLLLTESDITLDQANGLHYSVVYSDPKVVAEILALDMGDVNYRNSRGYTVLHFAAMRREPSIIISLIDKGANASEFTSDGRSAVNILRRLTNPKDYHTKTAKGRESSKARLCIDILEREIRKNPMVLDTPMCSISMPEDLQMRLLYLEKRVGLAQLFFPTEAKVAMDIGNVEGTSEFTGLSPPSSGLTGNLSQVDLNETPHMQTQRLLTRMVALMKTVETGRRFFPYGSEVLDKYMAEYIDDDILDDFHFEKGSTHERRLKRMRYRELKDDVQKAYSKDKESKIARSCLSASSSPSSSSIRDDLHNTT
B5: AT2G02560 (protein)
chain: ANLQVSGILEKFQMTGKDKDYRYMATSDLLNELNKDSFKIDLDLEVRLSSIILQQLDDVAGDVSGLAVKCLAPLVKKVGEERIVEMTNKLCDKLLHGKDQHRDTASIALRTVVAQIAPTLAPSILVTLTPQMIGGISGQGMSSGIKCECLEIMCDVVQKYGSLMTDDHEKLLNTLLLQLGCNQATVRKKTVTCIASLASSLSDDLLAKATVEVVKNLSNRNAKSEITRTNIQMIGALCRAVGYRFGTHLGNTVPVLINYCTSASENDEELREYSLQALESFLLRCPRDISPYCDEILNLTLEYISYDPNFTDNMEEDTDNETLEDEEDDESANEYTDDEDASWKVRRAAAKCLAGLIVSRSEMLTKVYQEACPKLIDRFKEREENVKMDVFNTFIDLLRQTGNVTKGQTDTDESSPKWLLKQEVSKIVKSINRQLREKSVKTKVGAFSVLRELVVVLPDCLADHIGSLVPGIERALNDKSSTSNLKIEALVFTKLVLASHAPPVFHPYIKALSSPVLAAVGERYYKVTAEALRVCGELVRVVRPSTAGMGFDFKPFVHPIYNAIMSRLTNQDQDQEVKECAITCMGLVISTFGDQLRAELPSCLPVLVDRMGNEITRLTAVKAFSVIATSPLHINLSCVLDHLIAELTGFLRKANRVLRQATLITMNTLVTAYGDKIGSEAYEVILVELSSLISVSDLHMTALALELCCTLMTGKSCSENISLAVRNKVLPQALTLVKSPLLQGQALLDLQKFFEALVYHANTSFYTLLESLLSCAKPSPQSGGVPKQALYSIAQCVAVLCLAAGDKNCSSTVKMLMEILKDDSGTNSAKQHLALLSLGEIGRRKDLSAHAGIETIVIESFQSPFEEIKSAASYALGNIAVGNLSNYLPFILDQIDNQQKKQYILLHSLKEVIVRQSVDKADFQNSSVEKILALLFNHCESEEEGVRNVVAECLGKMALIEPEKLVPALQVRTTSPAAFTRATVVTAVKYSVVERPEKLDEIIFPQISSFLMLIKDGDRHVRRAAVSALSTFAHYKPNLIKGLLPELLPLLYDQTVIKKELIRTVDLGPFKHVVDDGLELRKAAFECVFTLVDSCLDQVNPSSFIVPFLKSGLEDHYDLKMLCHLILSLLADKCPSAVLAVLDSLVEPLHKTISFKPKQDAVKQEHDRNEDMIRSALRAISSLDRINGVDYSHKFKGLMGDMKRSVPLWEKFQTIRNE
B6: AT3G48990 (protein, UniProt Q9SMT7 1-514, looked up)
Oxalate--CoA ligase: MDSDTLSGLLENVAKKFPDRRALSVSGKFNLTHARLHDLIERAASRLVSDAGIKPGDVVALTFPNTVEFVIMFLAVIRARATAAPLNAAYTAEEFEFYLSDSDSKLLLTSKEGNAPAQEAASKLKISHVTATLLDAGSDLVLSVADSDSVVDSATELVNHPDDGALFLHTSGTTSRPKGVPLTQLNLASSVKNIKAVYKLTESDSTVIVLPLFHVHGLLAGLLSSLGAGAAVTLPAAGRFSATTFWPDMKKYNATWYTAVPTIHQIILDRHASHPETEYPKLRFIRSCSASLAPVILSRLEEAFGAPVLEAYAMTEATHLMSSNPLPEEGPHKPGSVGKPVGQEMAILNEKGEIQEPNNKGEVCIRGPNVTKGYKNNPEANKAGFEFGWFHTGDIGYFDTDGYLHLVGRIKELINRGGEKISPIEVDAVLLTHPDVSQGVAFGVPDEKYGEEINCAVIPREGTTVTEEDIKAFCKKNLAAFKVPKRVFITDNLPKTASGKIQRRIVAQHFLEKP
B7: AT4G26120 (protein)
chain: MATTTTTTTARFSDSYEFSNTSGNSFFAAESSLDYPTEFLTPPEVSALKLLSNCLESVFDSPETFYSDAKLVLAGGREVSFHRCILSARIPVFKSALATVKEQKSSTTVKLQLKEIARDYEVGFDSVVAVLAYVYSGRVRSPPKGASACVDDDCCHVACRSKVDFMVEVLYLSFVFQIQELVTLYERQFLEIVDKVVVEDILVIFKLDTLCGTTYKKLLDRCIEIIVKSDIELVSLEKSLPQHIFKQIIDIREALCLEPPKLERHVKNIYKALDSDDVELVKMLLLEGHTNLDEAYALHFAIAHCAVKTAYDLLELELADVNLRNPRGYTVLHVAAMRKEPKLIISLLMKGANILDTTLDGRTALVIVKRLTKADDYKTSTEDGTPSLKGGLCIEVLEHEQKLEYLSPIEASLSLPVTPEELRMRLLYYENRVALARLLFPVETETVQGIAKLEETCEFTASSLEPDHHIGEKRTSLDLNMAPFQIHEKHLSRLRALCKTVELGKRYFKRCSLDHFMDTEDLNHLASVEEDTPEKRLQKKQRYMELQETLMKTFSEDKEECGKSSTPKPTSAVRSNRKLSHRRLKVDKRDFLKRPYGNGD
B8: AT2G29570 (protein, UniProt Q9ZW35 1-264, looked up)
Proliferating cell nuclear …: MLELRLVQGSLLKKVLEAVKDLVNDANFDCSTTGFSLQAMDSSHVALVSLLLRSEGFEHYRCDRNLSMGMNLGNMSKMLKCAGNDDIITIKADDGSDTVTFMFESPTQDKIADFEMKLMDIDSEHLGIPDAEYHSIVRMPSGEFSRICKDLSSIGDTVVISVTKEGVKFSTAGDIGTANIVLRQNTTVDKPEDAIVIEMNEPVSLSFALRYMNSFTKATPLSETVTISLSSELPVVVEYKVAEMGYIRYYLAPKIEEEEDTKPE
B9: AT5G49570 (protein, UniProt Q9FGY9 1-721, looked up)
Peptide-N(4)-(N-acetyl-beta-gl …: MVARKFVVRHEDSSFDVDYNTEDGLEVLRFLIFSLTLVPPEEQKIVAEDDNRLVSDESDLASLSERLRLVSVGEDSVENSDAEMLKSDEELARMLQAEEDAIMFQQFVAARDNGEFEGRIRPYVSQVLMYEDPVRQDAARKTVPKDELEEKALVSLAKEGNFEPSKEERDYAFLLQLLFWFKKSFRWVNEPPCDFCGNKTIGQGMGNPLTSELAYGANRVEIYRCTMCPTTTRFPRYNDPLKLVETKKGRCGEWANCFTLYCRTFGYDSRLIMDFTDHVWTECYSHSLKRWIHLDPCEGVYDKPMLYEKGWNKKLNYVIAISKDGVCDVTKRYTKKWHEVLSRRTLTTESSLQDGLRTLTRERRRSLMFESLSKLELRDRNEQEELERNLHSADNASVSLPGRQSGDREWRIMRSEFGSDENSSVSSSSCPVRKCVDDHVTNIYDSFLPILTQFVEDGLPVARTNEVLKMIKQVLVDLKNAPYKTRKARLTLDSDNSSSFPEQFLPALGDLLLALSLKSERDTNGKSVTISVDGKLTKTAIALPVALDALRELVADLSKYQNLNKDSLSFPLVKQNRVCSGSVLASGEELPSGIATAAFDGIQESKWEEPNGAKGCWIVYKTLYNQMHQLIAYELMSANDAPERDPKDWILEGSNDGGSTWCVLDKQTSQVFEERFQRKSYKITTPGFQANLFRFRFLSVRDVNSTSRLQLGSIDLYRSHQ
B10: AT1G02450 (protein, UniProt Q9FNZ5 1-142, looked up)
Protein NIM1-INTERACTING 1: MYPKQFSLYNYSLETMSKDENVESKETIRVDKRVREDEEEEEEKKIDTFFKLIKHYQEARKRRREELAENSGVVRRKSNGGERSGIVVPAFQPEDFSQCRTGLKPPLMFVSDHKEENTKVEQEEDQTEERNEDKALDLNLAL

System: sim3-GFP
Assay: Quantitative LC-MS/MS of sim3-GFP interactome (SINC components)
Set-up: species or system Arabidopsis thaliana
Settings: protein enrichment in the sim3-GFP interactome (SINC components), SA-treated samples versus mock

Molecule | Normalized Fold Change: SA vs Mock
B1 | 2.754
B2 | 4.63
B3 | 1615
B4 | 9.396
B5 | 42.1
B6 | 2.006
B7 | 16.7
B8 | 2.831
B9 | 3.134
B10 | 17.72
